The values below come from publication PMC4554727, “Flexible Structure of Peptide-Bound Filamin A Mechanosensor Domain Pair 20–21” (PLoS ONE, 2015).

By UniProt entry, the sequences of proteins in these tests, tags left out. Where a name states a change or a piece, a line headed by the entry shows the natural chain unless it says otherwise. Residues count along the entry.
IgFLNa20–21 (filamin A immunoglobulin-like domains 20–21, residues 2141–2329) (P21333, residues 2141-2329): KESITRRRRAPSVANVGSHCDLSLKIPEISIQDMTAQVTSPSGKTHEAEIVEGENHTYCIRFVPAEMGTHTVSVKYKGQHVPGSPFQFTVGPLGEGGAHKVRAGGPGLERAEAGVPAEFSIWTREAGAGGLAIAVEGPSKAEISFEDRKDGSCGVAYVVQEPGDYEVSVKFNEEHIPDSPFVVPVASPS
IgFLNaΔA20–21 (filamin A domains 20–21 lacking the first β strand of domain 20, residues 2151–2329) (P21333, residues 2151-2329): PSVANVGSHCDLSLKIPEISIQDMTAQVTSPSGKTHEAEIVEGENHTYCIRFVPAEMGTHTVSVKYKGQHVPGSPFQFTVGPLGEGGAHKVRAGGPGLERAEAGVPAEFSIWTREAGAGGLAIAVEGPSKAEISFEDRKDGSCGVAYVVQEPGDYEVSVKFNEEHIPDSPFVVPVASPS

Results are given in words; binding and its absence hold for the method and conditions named.

The target in assay [1] is IgFLNa20–21 (filamin A immunoglobulin-like domains 20–21, residues 2141–2329) (UniProt P21333). Kind of assay: SAXS; 277 K; 20 mM Tris pH 8.0, 100 mM NaCl, 10 mM DTT; 1–4 mg/ml IgFLNa20–21 or IgFLNa∆A20–21; two times molar excess of migfilin peptide where added; both purified.
Assay [2] deals with IgFLNaΔA20–21 (filamin A domains 20–21 lacking the first β strand of domain 20, residues 2151–2329) (UniProt P21333). The description is as above.
The target is the same in assay [3]. Kind of assay: crystal structure; hanging drop vapor diffusion at 295 K, equimolar (1 mM) protein-peptide mixture; 0.1 M MES pH 6, 1.9 M (NH4)2SO4, 0.1 M (CH3CO2)3Pr; 2.0 Å; both purified.
For assay [4] the target is unchanged. Kind of assay: NMR diffusion (radius of hydration); 30°C; free and migfilin-bound IgFLNaΔA20–21; radii of hydration compared with those predicted for a monomer and a dimer; both purified.

Turning to “IgFLNa20–21 (filamin A immunoglobulin-like domains 20–21, residues 2141–2329) (from UniProt P21333 2141-2329) (domain or fragment)”, the binding result in assay [1] was “no binding (tested: 1–4 mg/ml)”.
As to “IgFLNaΔA20–21 (filamin A domains 20–21 lacking the first β strand of domain 20, residues 2151–2329) (from UniProt P21333 2151-2329) (domain or fragment)”, the binding entry is recorded as “no binding (tested: 1–4 mg/ml)” in assay [2], “no binding” in assay [3] and “no binding” in assay [4].
